These results are taken from publication PMC10658506.

The target of this test is T1, yeast-displayed wild-type human IL-11 (human) (UniProt P20809).
T1 sequence: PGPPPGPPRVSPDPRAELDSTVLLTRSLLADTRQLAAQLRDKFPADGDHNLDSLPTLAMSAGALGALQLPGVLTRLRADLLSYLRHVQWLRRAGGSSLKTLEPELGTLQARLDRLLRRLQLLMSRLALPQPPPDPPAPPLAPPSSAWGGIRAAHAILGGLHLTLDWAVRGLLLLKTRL
Description: flow cytometry on cells; yeast-displayed IL-11 variants incubated with varying concentrations of soluble IL-11R or mIL-11R overnight at room temperature, washed with BPBS; receptor detected with anti-his AF647, display with anti-c-myc; apparent Kd from the fraction bound of the expressing …; only the binder purified. (Flow cytometry measures light scatter and fluorescence of single cells or particles in a stream.)

Results are given in words; binding and its absence hold for the method and conditions named. Some results given as binding are weak or reduced against the parent protein; the word gives no strength. Where a sequence is shown, tags or fusion partners need not be part of it.

B1: soluble human IL-11 receptor extracellular domain, his-tagged (receptor, UniProt Q14626 24-370)
chain: SPCPQAWGPPGVQYGQPGRSVKLCCPGVTAGDPVSWFRDGEPKLLQGPDSGLGHELVLAQADSTDEGTYICQTLDGALGGTVTLQLGYPPARPVVSCQAADYENFSCTWSPSQISGLPTRYLTSYRKKTVLGADSQRRSPSTGPWPCPQDPLGAARCVVHGAEFWSQYRINVTEVNPLGASTRLLDVSLQSILRPDPPQGLRVESVPGYPRRLRASWTYPASWPCQPHFLLKFRLQYRPAQHPAWSTVEPAGLEEVITDAVAGLPHAVRVSARDFLDAGTWSTWSPEAWGTPSTGTIPKEIPAWGQLHTQPEVEPQVDSPAPPRPSLQPHPRLLDHRDSVEQVAVLA
B1: the binding result is “binds”.
